This is one part of the list.
compound: C1=CC(=CC=C1C2=NC3=C(N2)C=C(C=C3)C(=O)N)OC4=CC=C(C=C4)Cl; test: log2 fold change, soluble protein after heating vs DMSO (PISA); higher = thermal stabilisation; K562 cells, 10 uM, 30 min; active = over 0.2 and 3.5 SD of the protein, either way, in both replicates (recomputed)
Method in brief: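 Thermal stability values are relative to control samples and come from duplicates. They are expressed as log2 fold changes. For measurement, K562 cells (2×10^6 cells/mL) received 10 μM compound for 30 min, and aliquots were heated for 3 min over 48°C-58°C, pooled, and extracted at 4°C in PBS with 0.5% NP-40. Soluble protein, the supernatant after 21,000xg for 90 min, was quantified by TMTpro 16plex LC-MS/MS with equalised channel sums.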

By UniProt entry, the sequences of proteins in these tests, tags left out. Where a name states a change or a piece, a line headed by the entry shows the natural chain unless it says otherwise.
UniProt Q86VM9: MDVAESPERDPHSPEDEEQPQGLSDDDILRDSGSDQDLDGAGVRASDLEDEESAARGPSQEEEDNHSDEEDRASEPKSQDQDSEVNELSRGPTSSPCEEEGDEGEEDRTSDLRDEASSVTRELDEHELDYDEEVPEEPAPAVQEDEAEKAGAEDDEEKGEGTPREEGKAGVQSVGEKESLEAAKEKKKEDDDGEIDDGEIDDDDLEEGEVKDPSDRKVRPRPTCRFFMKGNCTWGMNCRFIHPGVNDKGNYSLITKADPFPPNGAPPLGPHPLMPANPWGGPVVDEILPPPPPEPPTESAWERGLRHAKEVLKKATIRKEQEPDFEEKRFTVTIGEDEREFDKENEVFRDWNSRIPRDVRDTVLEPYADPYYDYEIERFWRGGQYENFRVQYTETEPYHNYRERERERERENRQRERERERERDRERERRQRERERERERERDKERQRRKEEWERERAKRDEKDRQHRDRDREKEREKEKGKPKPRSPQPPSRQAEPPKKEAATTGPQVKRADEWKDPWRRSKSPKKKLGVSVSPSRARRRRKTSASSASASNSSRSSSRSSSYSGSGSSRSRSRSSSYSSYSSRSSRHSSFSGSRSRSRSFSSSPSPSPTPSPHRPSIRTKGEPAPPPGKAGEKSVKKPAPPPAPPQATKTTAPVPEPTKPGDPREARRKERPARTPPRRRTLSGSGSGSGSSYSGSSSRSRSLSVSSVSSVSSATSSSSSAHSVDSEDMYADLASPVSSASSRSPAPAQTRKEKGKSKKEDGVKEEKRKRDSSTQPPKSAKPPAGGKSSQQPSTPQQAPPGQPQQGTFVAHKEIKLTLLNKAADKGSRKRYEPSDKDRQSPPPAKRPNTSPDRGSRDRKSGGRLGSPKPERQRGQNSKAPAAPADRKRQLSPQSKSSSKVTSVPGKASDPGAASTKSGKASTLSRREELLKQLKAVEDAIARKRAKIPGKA
UniProt Q9BSR8: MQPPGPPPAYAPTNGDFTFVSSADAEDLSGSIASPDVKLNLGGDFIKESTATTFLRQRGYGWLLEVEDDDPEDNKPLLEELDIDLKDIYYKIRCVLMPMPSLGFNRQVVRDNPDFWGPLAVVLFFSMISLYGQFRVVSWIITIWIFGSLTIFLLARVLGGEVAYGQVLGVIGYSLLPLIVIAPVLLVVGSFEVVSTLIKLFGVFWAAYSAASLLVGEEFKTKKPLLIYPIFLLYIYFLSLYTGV
UniProt A8MPS7: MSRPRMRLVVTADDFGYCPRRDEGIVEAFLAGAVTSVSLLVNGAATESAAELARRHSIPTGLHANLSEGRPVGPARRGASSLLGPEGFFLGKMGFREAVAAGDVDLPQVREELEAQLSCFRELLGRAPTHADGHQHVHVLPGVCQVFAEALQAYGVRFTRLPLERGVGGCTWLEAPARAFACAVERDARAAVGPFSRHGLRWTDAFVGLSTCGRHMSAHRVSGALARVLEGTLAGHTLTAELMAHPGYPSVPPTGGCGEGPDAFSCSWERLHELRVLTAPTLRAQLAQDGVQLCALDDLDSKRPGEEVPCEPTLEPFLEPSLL
UniProt Q5T4F4: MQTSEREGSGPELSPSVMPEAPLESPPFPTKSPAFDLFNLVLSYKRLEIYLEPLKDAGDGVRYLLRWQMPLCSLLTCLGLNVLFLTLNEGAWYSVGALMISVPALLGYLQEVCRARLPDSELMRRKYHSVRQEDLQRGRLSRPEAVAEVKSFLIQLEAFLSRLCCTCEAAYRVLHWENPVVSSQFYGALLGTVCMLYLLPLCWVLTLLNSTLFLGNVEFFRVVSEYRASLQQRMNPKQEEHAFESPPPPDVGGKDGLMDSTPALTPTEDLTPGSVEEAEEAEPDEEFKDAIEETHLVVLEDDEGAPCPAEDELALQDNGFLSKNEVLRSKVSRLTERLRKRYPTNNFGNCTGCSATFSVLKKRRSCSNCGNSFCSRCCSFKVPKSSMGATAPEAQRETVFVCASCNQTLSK
UniProt Q8NF64: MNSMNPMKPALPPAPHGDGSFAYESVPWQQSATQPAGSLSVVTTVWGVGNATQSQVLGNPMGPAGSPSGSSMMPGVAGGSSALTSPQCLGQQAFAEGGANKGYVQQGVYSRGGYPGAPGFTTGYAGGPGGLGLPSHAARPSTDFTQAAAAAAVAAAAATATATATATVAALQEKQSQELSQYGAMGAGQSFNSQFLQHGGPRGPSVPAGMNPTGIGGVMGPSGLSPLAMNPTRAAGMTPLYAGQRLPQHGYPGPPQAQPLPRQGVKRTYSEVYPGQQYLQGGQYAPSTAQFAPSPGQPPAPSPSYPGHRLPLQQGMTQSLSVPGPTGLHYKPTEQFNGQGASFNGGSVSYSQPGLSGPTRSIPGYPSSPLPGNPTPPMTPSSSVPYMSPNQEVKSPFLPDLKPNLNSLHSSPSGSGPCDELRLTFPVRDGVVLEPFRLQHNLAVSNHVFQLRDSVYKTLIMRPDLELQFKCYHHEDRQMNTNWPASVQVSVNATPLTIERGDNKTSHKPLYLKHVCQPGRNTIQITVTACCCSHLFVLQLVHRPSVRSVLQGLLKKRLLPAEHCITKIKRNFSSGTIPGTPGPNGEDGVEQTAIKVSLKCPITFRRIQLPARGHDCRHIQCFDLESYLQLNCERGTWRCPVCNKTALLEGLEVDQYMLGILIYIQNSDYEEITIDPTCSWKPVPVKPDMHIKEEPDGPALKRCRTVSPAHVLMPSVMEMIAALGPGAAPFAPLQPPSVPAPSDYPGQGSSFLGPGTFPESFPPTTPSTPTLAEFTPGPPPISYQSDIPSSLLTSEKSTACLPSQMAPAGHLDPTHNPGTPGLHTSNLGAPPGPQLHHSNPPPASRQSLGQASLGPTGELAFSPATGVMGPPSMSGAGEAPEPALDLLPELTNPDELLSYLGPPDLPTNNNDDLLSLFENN
UniProt P25490, whole entry, looked up: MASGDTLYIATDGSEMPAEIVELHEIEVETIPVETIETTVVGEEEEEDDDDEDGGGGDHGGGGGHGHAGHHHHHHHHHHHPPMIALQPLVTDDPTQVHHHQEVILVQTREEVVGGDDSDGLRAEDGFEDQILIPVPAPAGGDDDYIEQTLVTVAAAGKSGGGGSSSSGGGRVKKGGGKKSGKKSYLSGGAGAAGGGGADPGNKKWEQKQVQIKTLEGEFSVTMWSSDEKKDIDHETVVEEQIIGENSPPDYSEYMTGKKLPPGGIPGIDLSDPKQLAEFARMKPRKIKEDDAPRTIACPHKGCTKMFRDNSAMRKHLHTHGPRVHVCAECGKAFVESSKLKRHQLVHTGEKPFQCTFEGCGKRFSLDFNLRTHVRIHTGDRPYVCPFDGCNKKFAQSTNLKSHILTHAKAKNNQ
UniProt Q8IWT0: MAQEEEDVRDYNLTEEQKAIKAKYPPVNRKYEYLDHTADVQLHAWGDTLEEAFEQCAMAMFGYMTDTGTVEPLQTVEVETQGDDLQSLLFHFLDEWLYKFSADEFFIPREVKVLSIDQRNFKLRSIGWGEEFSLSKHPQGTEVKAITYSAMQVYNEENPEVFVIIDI
UniProt Q96K21: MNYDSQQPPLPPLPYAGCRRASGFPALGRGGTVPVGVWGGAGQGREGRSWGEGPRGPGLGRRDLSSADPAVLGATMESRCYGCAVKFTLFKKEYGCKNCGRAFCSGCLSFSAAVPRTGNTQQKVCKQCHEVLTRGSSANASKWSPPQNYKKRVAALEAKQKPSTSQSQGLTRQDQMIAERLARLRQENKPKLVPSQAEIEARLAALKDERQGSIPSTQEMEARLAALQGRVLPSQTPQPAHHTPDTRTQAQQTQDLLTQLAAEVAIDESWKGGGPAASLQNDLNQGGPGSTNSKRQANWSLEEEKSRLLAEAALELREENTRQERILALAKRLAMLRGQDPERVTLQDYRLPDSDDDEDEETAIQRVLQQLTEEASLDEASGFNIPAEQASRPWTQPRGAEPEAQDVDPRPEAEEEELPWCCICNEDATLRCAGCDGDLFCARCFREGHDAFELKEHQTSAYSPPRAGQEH
UniProt O15498: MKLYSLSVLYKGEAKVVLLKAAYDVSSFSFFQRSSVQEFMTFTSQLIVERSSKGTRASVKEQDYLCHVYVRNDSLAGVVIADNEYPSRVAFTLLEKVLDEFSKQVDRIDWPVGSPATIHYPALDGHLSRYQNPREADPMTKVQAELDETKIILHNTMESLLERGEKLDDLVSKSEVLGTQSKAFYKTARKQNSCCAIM
UniProt Q9C0B5: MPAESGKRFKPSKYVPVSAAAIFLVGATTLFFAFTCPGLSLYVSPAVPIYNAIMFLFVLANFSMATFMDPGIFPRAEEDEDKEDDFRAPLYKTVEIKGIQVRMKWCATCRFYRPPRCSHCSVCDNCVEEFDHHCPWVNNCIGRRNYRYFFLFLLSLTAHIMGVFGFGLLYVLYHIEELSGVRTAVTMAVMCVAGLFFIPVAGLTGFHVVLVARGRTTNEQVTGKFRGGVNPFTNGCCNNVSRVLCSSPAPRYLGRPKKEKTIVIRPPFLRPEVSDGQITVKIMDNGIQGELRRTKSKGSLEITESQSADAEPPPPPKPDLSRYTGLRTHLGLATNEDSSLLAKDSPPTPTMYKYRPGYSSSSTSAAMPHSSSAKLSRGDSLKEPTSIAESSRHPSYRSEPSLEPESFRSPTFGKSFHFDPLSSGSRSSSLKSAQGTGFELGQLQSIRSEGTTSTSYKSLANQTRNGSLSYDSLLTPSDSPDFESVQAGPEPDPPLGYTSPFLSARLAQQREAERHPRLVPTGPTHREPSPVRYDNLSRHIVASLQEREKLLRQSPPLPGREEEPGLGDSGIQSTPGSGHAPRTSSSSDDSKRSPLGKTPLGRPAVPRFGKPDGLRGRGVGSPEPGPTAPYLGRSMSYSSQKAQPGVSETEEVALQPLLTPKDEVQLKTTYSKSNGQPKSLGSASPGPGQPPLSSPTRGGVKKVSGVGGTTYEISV
UniProt Q16600: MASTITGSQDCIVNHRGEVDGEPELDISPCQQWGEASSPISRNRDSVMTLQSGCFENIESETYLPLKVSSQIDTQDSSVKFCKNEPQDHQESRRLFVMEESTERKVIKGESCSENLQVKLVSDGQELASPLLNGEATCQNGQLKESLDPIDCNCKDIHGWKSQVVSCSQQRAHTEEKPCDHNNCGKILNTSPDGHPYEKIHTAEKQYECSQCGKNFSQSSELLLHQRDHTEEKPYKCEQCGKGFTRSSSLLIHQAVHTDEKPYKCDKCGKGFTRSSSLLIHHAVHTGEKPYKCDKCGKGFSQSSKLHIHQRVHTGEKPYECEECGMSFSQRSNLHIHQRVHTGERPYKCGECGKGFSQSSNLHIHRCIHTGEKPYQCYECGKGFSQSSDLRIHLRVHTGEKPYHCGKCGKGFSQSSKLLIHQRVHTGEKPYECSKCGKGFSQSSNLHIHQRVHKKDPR
UniProt Q9NRH1: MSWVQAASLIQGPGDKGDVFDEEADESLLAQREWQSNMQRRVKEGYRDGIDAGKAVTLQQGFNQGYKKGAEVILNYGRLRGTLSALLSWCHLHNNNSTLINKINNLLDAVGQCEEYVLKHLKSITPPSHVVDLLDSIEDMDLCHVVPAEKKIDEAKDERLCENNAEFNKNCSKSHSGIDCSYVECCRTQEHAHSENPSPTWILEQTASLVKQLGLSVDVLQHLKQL
UniProt P17028: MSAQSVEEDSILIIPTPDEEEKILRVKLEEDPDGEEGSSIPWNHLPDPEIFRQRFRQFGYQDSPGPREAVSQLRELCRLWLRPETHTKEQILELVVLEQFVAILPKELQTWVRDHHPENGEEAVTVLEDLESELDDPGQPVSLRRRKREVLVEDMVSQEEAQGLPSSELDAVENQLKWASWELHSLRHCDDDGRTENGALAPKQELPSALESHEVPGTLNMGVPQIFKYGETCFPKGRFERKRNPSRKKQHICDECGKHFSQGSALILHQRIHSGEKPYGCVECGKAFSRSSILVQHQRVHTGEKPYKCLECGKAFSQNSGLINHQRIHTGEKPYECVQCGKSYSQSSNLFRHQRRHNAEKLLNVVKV
UniProt Q96GY0: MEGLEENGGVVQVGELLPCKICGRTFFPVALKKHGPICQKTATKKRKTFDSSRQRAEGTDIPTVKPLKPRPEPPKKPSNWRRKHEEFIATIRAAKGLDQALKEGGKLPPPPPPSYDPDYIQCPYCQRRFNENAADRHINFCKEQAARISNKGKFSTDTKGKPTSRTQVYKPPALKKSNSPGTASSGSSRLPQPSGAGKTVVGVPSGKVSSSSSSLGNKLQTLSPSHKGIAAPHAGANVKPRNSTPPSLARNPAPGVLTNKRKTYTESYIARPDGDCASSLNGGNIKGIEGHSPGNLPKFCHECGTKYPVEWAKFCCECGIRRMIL
UniProt Q9NUD5: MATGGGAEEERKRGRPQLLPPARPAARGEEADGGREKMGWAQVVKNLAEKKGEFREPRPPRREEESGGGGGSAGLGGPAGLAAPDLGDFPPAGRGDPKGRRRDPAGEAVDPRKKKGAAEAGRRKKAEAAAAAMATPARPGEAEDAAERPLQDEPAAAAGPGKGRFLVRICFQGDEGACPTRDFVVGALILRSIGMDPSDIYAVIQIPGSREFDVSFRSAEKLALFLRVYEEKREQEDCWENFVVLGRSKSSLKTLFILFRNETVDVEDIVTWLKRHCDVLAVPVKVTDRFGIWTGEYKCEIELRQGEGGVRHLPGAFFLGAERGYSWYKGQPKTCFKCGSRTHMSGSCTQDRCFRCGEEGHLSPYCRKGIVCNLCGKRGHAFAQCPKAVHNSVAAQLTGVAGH

log2 fold change, inactive:
ZDHHC14 (UniProt Q8IZN3) 0.077
ZC3H18 (UniProt Q86VM9) 0.045
ZC3H8 (UniProt Q8N5P1) 0.027
YIPF4 (UniProt Q9BSR8) -0.039
YDJC (UniProt A8MPS7) -0.104
ZMPSTE24 (UniProt O75844) -0.02
ZFYVE27 isoform 2 (UniProt Q5T4F4) -0.03
ZBTB43 (UniProt O43298) 0.037
ZMIZ2 (UniProt Q8NF64) -0.015
ZDHHC18 (UniProt Q9NUE0) 0.078
ZER1 (UniProt Q7Z7L7) -0.311
YY1 (UniProt P25490) 0.03
YWHAE (UniProt P62258) 0
YES1 (UniProt P07947) 0.049
ZBTB8OS (UniProt Q8IWT0) -0.006
YJU2 (UniProt Q9BW85) -0.01
YLPM1 (UniProt P49750) 0.033
YBX3 (UniProt P16989) 0.041
ZFYVE19 (UniProt Q96K21) 0.016
YARS2 (UniProt Q9Y2Z4) -0.047
XPO5 (UniProt Q9HAV4) -0.005
ZDHHC17 (UniProt Q8IUH5) -0.046
ZC3H14 (UniProt Q6PJT7) -0.076
YKT6 (UniProt O15498) -0.031
ZDHHC5 (UniProt Q9C0B5) 0.027
ZNF239 (UniProt Q16600) 0.248
ZC3H15 (UniProt Q8WU90) -0.002
YAE1 (UniProt Q9NRH1) 0
ZNF24 (UniProt P17028) 0.001
ZFAND6 (UniProt Q6FIF0) 0.003
ZC2HC1A (UniProt Q96GY0) -0.052
YWHAZ (UniProt P63104) 0.011
ZCCHC3 (UniProt Q9NUD5) 0.1
XPO1 (UniProt O14980) -0.06
YEATS4 (UniProt O95619) 0.119
ZC3HC1 (UniProt Q86WB0) -0.034
XXYLT1 (UniProt Q8NBI6) -0.007
ZDHHC3 isoform 2 (UniProt Q9NYG2) -0.012
ZBTB21 (UniProt Q9ULJ3) 0.053

Fetched one by one from the list above, two records:
log2 fold change, inactive:
XPO5 (UniProt Q9HAV4) -0.005
ZMIZ2 (UniProt Q8NF64) -0.015
